Values from PubChem BioAssay AID1259308 (NCATS, 2017)
Here is a random part of about 59,000 reagents tested. In the full data, about 1,510 (2.6%) are marked active. 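Calls use total luciferase alone and ignore viability, so some active siRNAs may act by altering cell number.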 Further read-outs or replicates are left out here. No sequences are given here.

Assay: 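Genes whose loss raises luciferase production in HEK293 cells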 (primary screen)
Cell system: human HEK293 embryonic kidney cells stably expressing firefly luciferase (HEK-CMV-Luc2-Hygro)
Knock-down reagent: single siRNA against human genes, 0.8 pmol siRNA per well
Duration: 72 h
Measured: 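Luciferase light (ONE-Glo) measured on one replicate plate set and viability (CellTiter-Glo) on the other, scaled to a negative control siRNA, with robust z-scores and luciferase per cell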
Reading the numbers: total luciferase, z-score and total luciferase, % of control: higher = more reporter protein produced
Active means: 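Active when the median/MAD z-score for overall luciferase is greater than 3; a gene was taken forward for validation with new siRNAs if at least two of its three siRNAs passed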
Meaning of the calls: active = raised luciferase; inactive = no rise

target	PubChem SID	total luciferase, z-score	total luciferase, % of control	call
RFTN2	SID160756936	0.215	86.2	inactive
RFTN2	SID160756938	0.305	88	inactive
RFTN2	SID160756939	0.247	86.8	inactive
REG1B	SID160715784	1.28	107	inactive
REG1B	SID160715785	0.975	101	inactive
REG1B	SID160715786	1.89	120	inactive
FAM221B	SID160733286	5.51	192	active
FAM221B	SID160766750	0.0408	82.7	inactive
FAM221B	SID160766751	0.488	91.6	inactive
S100A7P3	SID160731731	-1.27	56.7	inactive
S100A7P3	SID160769726	0.49	91.6	inactive
S100A7P3	SID160769727	-2.42	33.7	inactive
AKAP11	SID160730208	0.0118	82.1	inactive
AKAP11	SID160730209	0.368	89.2	inactive
AKAP11	SID160730210	1.89	120	inactive
TMEM184A	SID160761081	-0.888	64.2	inactive
TMEM184A	SID160761082	1.09	103	inactive
TMEM184A	SID160761084	-0.474	72.5	inactive
STX19	SID160767620	0.0586	83.1	inactive
STX19	SID160767622	0.567	93.2	inactive
STX19	SID160767623	-0.0649	80.6	inactive
ROPN1L	SID160734288	-0.754	66.9	inactive
ROPN1L	SID160751428	-1.19	58.1	inactive
ROPN1L	SID160751429	0.00772	82	inactive
ROPN1L	SID160751431	-0.0664	80.6	inactive
ROPN1L	SID160771509	0.758	97	inactive
ROPN1L	SID160771510	0.144	84.7	inactive
APOBEC3F	SID160727967	0.611	94	inactive
APOBEC3F	SID160727968	-1.5	52	inactive
APOBEC3F	SID160727969	-1.36	54.8	inactive
CENPA	SID160741774	1.68	115	inactive
CENPA	SID160741782	0.529	92.4	inactive
CENPA	SID160741793	0.0603	83.1	inactive
ACLY	SID160777649	-0.947	63.1	inactive
ACLY	SID160777660	-0.516	71.6	inactive
ACLY	SID160777671	-0.935	63.3	inactive
PSMC4	SID160715219	0.768	97.2	inactive
PSMC4	SID160715220	-0.531	71.3	inactive
PSMC4	SID160715221	0.0605	83.1	inactive

Part of the list above in another layout.
{"target": "ROPN1L", "PubChem SID": "SID160751429", "total luciferase, z-score": 0.00772, "total luciferase, % of control": 82, "call": "inactive"}
{"target": "ROPN1L", "PubChem SID": "SID160751431", "total luciferase, z-score": -0.0664, "total luciferase, % of control": 80.6, "call": "inactive"}
{"target": "ROPN1L", "PubChem SID": "SID160771509", "total luciferase, z-score": 0.758, "total luciferase, % of control": 97, "call": "inactive"}
{"target": "ROPN1L", "PubChem SID": "SID160771510", "total luciferase, z-score": 0.144, "total luciferase, % of control": 84.7, "call": "inactive"}
{"target": "APOBEC3F", "PubChem SID": "SID160727967", "total luciferase, z-score": 0.611, "total luciferase, % of control": 94, "call": "inactive"}
{"target": "APOBEC3F", "PubChem SID": "SID160727968", "total luciferase, z-score": -1.5, "total luciferase, % of control": 52, "call": "inactive"}
